# Laboratory results: PubChem BioAssay AID2685 (National Center for Advancing Translational Sciences (NCATS), 2010)
# The other results are listed elsewhere or left out. The main result of the screen is listed elsewhere. These columns were measured beside it and carry no call. Most of these compounds were active or inconclusive in the main read-out, so they are no random draw. Potencies come from curve fits of mixed quality, noted in brackets.
# Test: qHTS Assay for Lipid Storage Modulators in Drosophila S3 Cells;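 on cell number change: cells counted by Cell Tracker Red CMTPX staining in the red channel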
# Conditions: BODIPY lipid droplet fluorescence, 18-24 h; for cell number change: measured here: cell count max response, cells fed with added oleic acid
# Summary of the method: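 Drosophila S3 cells loaded with oleic acid (400 uM, as added) and compounds at several concentrations; lipid droplets imaged by 488-nm laser-scanning cytometry, 500–530 nm intensity and object ratio to cell channel. Percent activity normalized to 20 uM Triacsin C.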
# [1] = measured here: cell number channel AC50, cells fed with added oleic acid
# [2] = measured here: lipid fluorescence (Fed channel) AC50, cells fed with added oleic acid
Compound,cell number change [%],AC50 [1],AC50 [2]
COc1ccc(NC(=O)CN(C)C(=O)c2cn(-c3ccccc3)nc2-c2ccc(Cl)cc2)cc1,-15.4,,
Nc1ccc(C(=O)O)cc1,16,,
Cc1ccc(C(=O)Nc2ccc(C)c(S(=O)(=O)Nc3ccccc3Cl)c2)s1,,"6.51 µM [rising, single point]",
CN(CC(=O)Nc1cc(S(=O)(=O)N2CCCC2)ccc1Cl)Cc1cccs1,15.9,,
Cc1cc(C)cc(NC(=O)C2CCCC2)c1,10,,
NS(=O)(=O)c1cc(C(=O)N=Nc2c(O)[nH]c3ccccc23)ccc1Cl,-59.6,"0.00461 µM [falling, full curve, poor fit]","0.92 µM [falling, partial curve, poor fit]"
Cc1ccccc1NC(=S)NC(=O)Cc1ccc(Cl)cc1,-37.3,"10.3 µM [falling, partial curve]",
Cc1ccccc1C(=O)Nc1cccc(C#N)c1,12.6,,"8.2 µM [rising, partial curve, poor fit]"
O=S(=O)(c1ccccc1)N1CCN(C(=S)Nc2ccccc2)CC1,32.4,,
Cc1nn(CC(=O)NN)c(C)c1Br,13.3,,"6.51 µM [falling, single point]"
O=C(Nc1nc2ccccc2s1)c1cc2c(s1)-c1ccccc1OC2,-7.55,"0.184 µM [rising, full curve]","0.326 µM [rising, full curve]"
O=C(Cc1c(F)cccc1Cl)Nc1ccc(S(=O)(=O)N2CCCC2)cc1,16.7,,
Cc1ccc(S(=O)(=O)N2CCN(S(=O)(=O)c3ccc4c(c3)OCCO4)CC2)cc1,-6.33,,"20.6 µM [falling, partial curve, poor fit]"
COc1ccc(CNC(=O)CSc2nc(C)cs2)cc1,-9.74,,"3.26 µM [falling, full curve, poor fit]"
Cc1ccc(-n2cc(CCCCCCCCC(=O)O)nn2)cc1,12.9,,
COc1ccc(CCNC(=O)c2noc(C(C)C)c2[N+](=O)[O-])cc1OC,-42.5,"13 µM [falling, partial curve, poor fit]","29.1 µM [falling, single point]"
CCn1cc2nc(SCC(=O)Nc3ccc(OC)cc3OC)n(Cc3ccc(OC)cc3)c(=O)c2n1,214,"23.1 µM [rising, partial curve]",
CC(=O)Oc1ccc2c(=O)c(-c3ccccc3)coc2c1,1.94,,"0.461 µM [rising, single point]"
COc1ccc(OC)c(CNC(=O)C2CCCN(c3ncnc4c3nc3n4CCCCC3)C2)c1 (stereo unspecified),,,"1.84 µM [falling, partial curve, poor fit]"
CCOC(=O)c1c(C)[nH]c(C(=O)OCC(=O)NCc2ccc(F)cc2)c1C,-48.1,"11.6 µM [falling, partial curve]",

# An excerpt of these results, tab-delimited:
Compound	cell number change [%]	AC50 [1]	AC50 [2]
CC(=O)Oc1ccc2c(=O)c(-c3ccccc3)coc2c1	1.94		0.461 µM [rising, single point]
COc1ccc(OC)c(CNC(=O)C2CCCN(c3ncnc4c3nc3n4CCCCC3)C2)c1 (stereo unspecified)			1.84 µM [falling, partial curve, poor fit]

# The list goes on:

Compound,cell number change [%],AC50 [1],AC50 [2]
CCOC(=O)CC1C(=O)NCCN1Cc1cccs1 (stereo unspecified),29.7,"1.84 µM [falling, single point]","6.51 µM [falling, single point]"
COc1ccc(-c2csc(NC(=O)c3cccs3)c2C(=O)O)cc1OC,,"6.51 µM [falling, single point]",
CN(CC(=O)Nc1ccc(F)cc1)CC(=O)N1CCCCCC1,-11.3,,"0.651 µM [falling, partial curve, poor fit]"
COC(=O)c1ccc(C(=O)OC)c(-n2c(=O)c3ccccc3c3ccccc3c2=O)c1,-34,"20.6 µM [falling, single point]","20.6 µM [falling, single point]"
Cc1ccc(C(=O)CN2C(=O)NC3(CCCCC3C)C2=O)s1 (stereo unspecified),-18.9,,"4.11 µM [falling, full curve]"
O=c1oc2ccccc2c(Nc2cccc(O)c2)c1[N+](=O)[O-],0.809,,"0.206 µM [falling, full curve, poor fit]"
CC(=O)Nc1ccc(S(=O)(=O)NCC2CCC(C(=O)NCCCN3CCCC3=O)CC2)cc1 (stereo unspecified),-23.9,,"16.4 µM [falling, single point]"
COc1ccc(-n2nc(C(=O)NCC(=O)NCCCN3CCN(C)CC3)c3ccccc3c2=O)cc1OC,48.7,,"5.62 µM [falling, single point]"
CCc1ccc(OCC(=O)NNC(=O)c2nn(CC)c(=O)c3ccccc23)cc1,23.6,"0.411 µM [rising, full curve, poor fit]",
CCOc1nc(-c2ccc(OC)cc2)ccc1-c1noc(-c2ccncc2)n1,9.71,"6.51 µM [rising, single point]","23.1 µM [rising, partial curve]"
Cc1ccc(N2C(=O)SC(N(CC(=O)O)c3cccc(C)c3)C2=O)cc1 (stereo unspecified),-11.9,,"0.82 µM [falling, full curve, poor fit]"
O=C(O)c1ccccc1C(=O)c1cccs1,-8.45,,"20.6 µM [falling, single point]"
COc1ccc(-n2c(=S)[nH]c3cc(C(=O)NCc4ccco4)ccc3c2=O)cc1OC,37.6,,
C/C(=N\NC(=O)c1ccc(O)cc1)c1ccc2c(c1)OCCO2,17.8,,"6.51 µM [falling, single point]"
CC1(C)CC(=O)C2=C(C1)N(Cc1cccnc1)C(=O)C2(NC(=O)c1cccnc1)C(F)(F)F (stereo unspecified),11.6,,"6.51 µM [rising, single point]"
COc1cccc(NC(=O)C(=O)c2cn(CC(=O)N3CCOCC3)c3ccccc23)c1,32.7,"29.1 µM [rising, single point]","29.1 µM [rising, single point]"
NC(=O)COc1ccc(C2c3c(oc4ccccc4c3=O)C(=O)N2CC2CCCO2)cc1 (stereo unspecified),10.6,,"29.1 µM [rising, single point]"
O=C(c1ccco1)N1CCN(Cc2cccnc2)CC1,45.5,"29.1 µM [rising, single point]","29.1 µM [rising, single point]"
CCN(CC(N)=O)S(=O)(=O)c1ccc(Br)cc1,-144,"11.6 µM [falling, partial curve]","29.1 µM [falling, single point]"
